Data as given in publication PMC9873702.

Amino acid sequences for entries named in this document (tags omitted). A change or cut given only in a name is not applied to a line headed by its entry. Residues count along the entry.
UniProt P35436, residues 1244-1464: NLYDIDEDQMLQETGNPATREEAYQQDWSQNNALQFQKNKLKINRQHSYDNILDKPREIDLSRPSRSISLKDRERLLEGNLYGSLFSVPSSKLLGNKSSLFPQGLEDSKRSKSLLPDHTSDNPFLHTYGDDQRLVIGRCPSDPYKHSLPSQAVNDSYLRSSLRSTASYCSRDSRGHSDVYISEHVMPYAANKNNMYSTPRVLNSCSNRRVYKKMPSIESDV
UniProt Q9Y2J0: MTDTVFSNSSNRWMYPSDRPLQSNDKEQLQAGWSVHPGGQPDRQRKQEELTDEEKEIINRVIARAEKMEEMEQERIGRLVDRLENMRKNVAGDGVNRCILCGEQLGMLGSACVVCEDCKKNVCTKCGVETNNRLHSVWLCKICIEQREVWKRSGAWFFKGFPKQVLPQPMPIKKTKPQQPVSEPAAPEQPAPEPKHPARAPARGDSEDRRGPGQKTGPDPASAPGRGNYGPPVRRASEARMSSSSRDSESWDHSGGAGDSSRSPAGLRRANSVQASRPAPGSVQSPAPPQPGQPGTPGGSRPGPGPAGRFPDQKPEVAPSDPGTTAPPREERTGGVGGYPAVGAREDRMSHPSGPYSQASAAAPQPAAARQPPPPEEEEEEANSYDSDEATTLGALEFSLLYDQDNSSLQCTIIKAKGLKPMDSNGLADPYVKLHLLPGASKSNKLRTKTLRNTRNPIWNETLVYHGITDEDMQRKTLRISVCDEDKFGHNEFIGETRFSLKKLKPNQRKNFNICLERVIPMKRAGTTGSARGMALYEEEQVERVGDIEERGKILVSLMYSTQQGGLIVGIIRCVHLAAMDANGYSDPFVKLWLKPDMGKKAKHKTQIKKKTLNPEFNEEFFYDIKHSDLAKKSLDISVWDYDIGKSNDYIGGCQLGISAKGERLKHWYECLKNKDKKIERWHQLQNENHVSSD

Molecular target: GluN2A C-terminal domain (aa 1244-1464), myc-tagged (mouse) (UniProt P35436)
Test: co-IP; Flag-tagged Rph3A, myc-tagged GluN2A or HA-tagged PSD95 co-transfected; lysis buffer 50 mM Tris-HCl, 1 mM EDTA, 150 mM NaCl, 1% Igepal CA-630; anti-Flag or anti-myc magnetic agarose beads, 4 °C overnight; western blot; the GluN2A-CTD/PSD95 co-IP was done in the presence of WT or R9A Rph3A

In the case of “Rabphilin-3A R9A mutant, Flag-tagged (from UniProt Q9Y2J0)”, the binding is reported as “binds”.

These are yes or no findings as the source states them, for the method shown. In cells and extracts the contact can be indirect. Binding can be weak; no strength is given.
